Measured values: patent US7238659B2, “Reducing axon degeneration with proteasome inhibitors” (Children's Medical Center Corporation, priority 2003, dated 2007)
For some of these results: For at least one compound, name, drawing or mass did not settle the structure. Some of these results come from one statement about several compounds together.

What was measured:
[1] = system: transected axons from cultured sympathetic neurons; test: Wallerian degeneration of transected axons in cultured sympathetic ganglia; assay type: cell-based, rat; details: dose-response studies 1-100 mM
Text: Inhibiting the ubiquitin-proteasome pathway delays Wallerian degeneration. Wallerian degeneration in most transected mammalian nerve fibers is a complex sequence that entails degradation of the axon, changes in the ensheathing and glial cells, alterations in the blood-tissue barriers, and responses of macrophage-lineage cells (reviewed by Griffin et al., 1995). To study the underlying mechanisms involved in the axon degeneration process, we have used the degeneration of transected axons from cultured primary neurons as models (Buckmaster et al., 1995; George et al., 1995; Wang et al., 2001). In cultured sympathetic ganglia derived from postnatal day 3 (p3) rats, soma-deprived axons undergo a typical degenerative process (herein, George et al., 1995; Wang et al., 2001). The severed axons first appear normal for 6-10 hr, depending upon the duration of culturing prior to axotomy. For sympathetic ganglia that have been cultured for 5 days, the severed axons begin to develop such signs of early degeneration as focal swelling and beading approximately 8 hrs after the axons had been separated from their cell bodies. In most cases, the axons would be completely degenerated and detached after 12-16 hr post-axotomy. Similar degenerative processes were also observed in other types of cultured neurons, such as chicken dorsal root ganglion neurons and retinal ganglion cells. […]

[2] = system: HD transgenic mice of the R6/2 strain; test: Huntington's disease (HD) animal model, oral administration in diet; assay type: in vivo; design: key to the marks not given beside the values; details: R6/2 mice, diet supplemented with 1, 2, or 3% inhibitor

Structure (SMILES)	concentration of most robust effects [1] [mM]	Enhanced Body Weight [2]	Enhanced Rotarod Performance [2]	Reduced Brain Atrophy [2]
CC(=O)N[C@@H](CSC(=O)[C@]1([C@@H](O)C(C)C)NC(=O)[C@H](C)[C@@H]1O)C(=O)O [Lactacystin]	10 to 20			
CC(C)C(O)C12NC(=O)C(C)(C)C1OC2=O (stereo not drawn) [α-Methylomuralide, α-Methyl clasto-Lactacystin β-Lactone]		++++	++++	++++
